Data: US20250361219A1, “SYSTEMS AND METHODS FOR SEPARATION OF CHEMICAL SPECIES, SUCH AS CANNABINOIDS, USING MULTIPLE LIQUID PHASES” (priority 2022, published 2025)

Test: Pilot plant scale 5-stage multi-stage extraction of aldehydes
Conditions: pilot scale 5-stage system, feed at stage 3, 1/4 feed to organic ratio, 2.75/1 aqueous to organic outlet phase ratio

Compound | Experimental Extraction Efficiency (percentage extracted into the aqueous phase)
CC(C)c1ccc(C=O)cc1 [Cuminaldehyde, cuminaldehyde] | 58.8%
CCc1ccc(C=O)cc1 [4-ethylbenzaldehyde] | 43.8%
